# In US10815274B2, “Immunogenic WT-1 peptides and methods of use thereof” (Memorial Sloan Kettering Cancer Center, priority 2012, dated 2020):
# Part of at least one peptide drawing is inferred or uncertain, most often the ends. Where a SMILES comes first, the peptide text is derived from it.
# Tested on: WT1+ leukemic cells
# Experiment: Phase I clinical trial, adoptive therapy with donor-derived T-cells sensitized with the full pool of WT1 pentadecapeptides
# Type: in vivo, human
# Conditions: two treated patients; donor T-cells responding to the epitope
compound,measurement,value
CC(C)C[C@H](NC(=O)[C@H](CS)NC(=O)CNC(=O)[C@@H]1CCCN1)C(=O)N[C@@H](CCC(N)=O)C(=O)N[C@@H](CCC(N)=O)C(=O)N1CCC[C@H]1C(=O)N[C@@H](CCC(=O)O)C(=O)N[C@@H](CCC(N)=O)C(=O)N[C@@H](CCC(N)=O)C(=O)NCC(=O)O [SEQ ID NO: 149] (H-PGCLQQPEQQG-OH; N-terminus and C-terminus assumed),clinical outcome after adoptive transfer,temporary clearance of WT1^+ leukemic cells
